Tested on: SW620, PC3 and NCI-H23 cancer cell lines
Experiment: SRB cytotoxicity, range over three human cancer cell lines
Assay type: cell-based
Details: read-out: Cytotoxicity IC50 values (range over cell lines)

O=C(CCCCCCC(=O)Nc1ccccc1)NO [SAHA, suberoylanilide hydroxamic acid, reference compound]
IC50: 1450 to 1660 nM

From publication PMC7905942 (ACS Omega, 2021)
